Experimental data reported in paper PMC7424762.
Results are given in words; binding and its absence hold for the method and conditions named. Binding seen in cells or lysates may run through a third protein. Binding calls can cover weak binding; strength is not graded here.

T1: like AP180 (lap), the Drosophila PICALM orthologue (Drosophila (endogenous in adult fly heads)) (UniProt Q9VI75)
T1 sequence: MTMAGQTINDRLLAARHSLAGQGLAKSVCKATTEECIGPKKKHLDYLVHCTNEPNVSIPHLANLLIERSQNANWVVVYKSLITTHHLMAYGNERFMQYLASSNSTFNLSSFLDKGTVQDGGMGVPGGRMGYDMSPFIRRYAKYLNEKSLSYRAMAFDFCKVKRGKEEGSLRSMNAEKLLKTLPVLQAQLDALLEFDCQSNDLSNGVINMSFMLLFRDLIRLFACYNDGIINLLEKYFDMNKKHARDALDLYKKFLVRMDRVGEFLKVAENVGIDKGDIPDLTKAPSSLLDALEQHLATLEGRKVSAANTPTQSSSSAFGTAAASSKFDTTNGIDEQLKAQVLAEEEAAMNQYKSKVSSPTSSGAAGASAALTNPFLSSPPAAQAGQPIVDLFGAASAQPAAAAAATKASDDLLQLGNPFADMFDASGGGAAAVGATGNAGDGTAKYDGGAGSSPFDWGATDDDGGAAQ


Legend:
[1] = target: T1, like AP180 (lap), the Drosophila PICALM orthologue (Drosophila (endogenous in adult fly heads)); assay: co-IP; lysate of 40 heads of wild-type (w^Dah) adult flies; lysis buffer 50 mM Tris pH 7.5, 150 mM NaCl, 0.5% NP-40; protein G Dynabeads cross-linked with anti-PICALM or anti-dVGlut antibody, overnight at 4°C; bead-only control; Western blot for the partner; run in duplicate
[2] = target: vesicular glutamate transporter (VGlut) (Drosophila (endogenous in adult fly heads)); assay: as above

binding [1]	binding [2]	Molecule
binds		vesicular glutamate transporter (VGlut)
	binds	like AP180 (lap), the Drosophila PICALM orthologue (protein, UniProt Q9VI75 1-468) MTMAGQTINDRLLAARHSLAGQGLAKSVCKATTEECIGPKKKHLDYLVHCTNEPNVSIPHLANLLIERSQNANWVVVYKSLITTHHLMAYGNERFMQYLASSNSTFNLSSFLDKGTVQDGGMGVPGGRMGYDMSPFIRRYAKYLNEKSLSYRAMAFDFCKVKRGKEEGSLRSMNAEKLLKTLPVLQAQLDALLEFDCQSNDLSNGVINMSFMLLFRDLIRLFACYNDGIINLLEKYFDMNKKHARDALDLYKKFLVRMDRVGEFLKVAENVGIDKGDIPDLTKAPSSLLDALEQHLATLEGRKVSAANTPTQSSSSAFGTAAASSKFDTTNGIDEQLKAQVLAEEEAAMNQYKSKVSSPTSSGAAGASAALTNPFLSSPPAAQAGQPIVDLFGAASAQPAAAAAATKASDDLLQLGNPFADMFDASGGGAAAVGATGNAGDGTAKYDGGAGSSPFDWGATDDDGGAAQ
